The list shows only some results of the screen, not a fair sample: it gathers tests that were run many times, whatever their T/C, doses with no T/C, and many T/C values between a quarter and a half above the control. Further doses and runs are listed elsewhere. T/C: endpoint of the treated group in % of that of the vehicle group. Some doses have a count of surviving animals in place of a T/C: the source holds a T/C of zero for them, seemingly a mark for toxic or unscored doses. Some doses without a T/C left all or most animals alive at the check, yet need not have been tolerated: survival well below the control is almost never listed, so the zero probably covers shortened survival too. Counts of survivors are from the toxicity check (mostly the fifth day) where no day follows; animals may have died later. Schedule codes are those of the source, taken here to give the interval after Q, in days (D) or hours (H), and the number of doses after X. Where survival is the endpoint, this PubChem deposit counts one and a half times the control or more as active, and values a quarter to a half above the control carry no call in these data; other NCI protocols may use other cut-offs. Marks such as (2×) count equal records among those shown. Some doses were run more than once; the results are listed from low to high. Some T/C values carry the count of animals alive at the toxicity check (mostly the fifth day); where none is given, no animal had died by that day. Non-standard residues stand in square brackets, D forms with d. Residues, ends and D or L forms follow the SMILES beside them. ξ: configuration not given here. *: point of attachment. Nphe = O=C(O)CNCc1ccccc1; ξF = NC(Cc1ccccc1)C(=O)O; Ms = CS(=O)(=O)*
Test system: BDF1 mice, P388 leukemia ip, median survival T/C
Experiment: NCI In Vivo Anticancer Drug Screen. Data for tumor model P388 Leukemia (intraperitoneal) in B6D2F1 (BDF1) mice
Details: T/C endpoint: median survival time, higher T/C = longer survival
Outline: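 T/C = treated-group survival ÷ vehicle-control survival; tumour transplanted into mice before dosing.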

[1] = dose: 100.0 mg/kg/injection, schedule: Q01DX009 (ip), vehicle: saline with Tween-80
[2] = dose: 200.0 mg/kg/injection, schedule: Q01DX009 (ip), vehicle: saline with Tween-80
[3] = dose: 50.0 mg/kg/injection, schedule: Q01DX009 (ip), vehicle: Klucel (hydroxypropylcellulose) (HPC)
[4] = dose: 25.0 mg/kg/injection, schedule: Q01DX009 (ip), vehicle: Klucel (hydroxypropylcellulose) (HPC)
[5] = dose: 200.0 mg/kg/injection, schedule: Q01DX009 (ip), vehicle: saline

## C=C(C)C(=O)O[C@H]1CC2=C[C@@H](C[C@@]3(C)O[C@@H]3[C@H]3OC(=O)C(=C)[C@@H]31)OC2=O
dose: 3.75 mg/kg/injection, schedule: Q01DX009 (ip), vehicle: water
  T/C: 133 and 138 % of control
dose: 5.0 mg/kg/injection, schedule: Q01DX009 (ip), vehicle: saline + alcohol
  T/C: 127 % of control
dose: 7.5 mg/kg/injection, schedule: Q01DX009 (ip), vehicle: water
  T/C: 138 % of control (2×)
dose: 7.5 mg/kg/injection, schedule: Q01DX010 (ip), vehicle: carboxymethylcellulose (CMC)
  T/C: 140 % of control
dose: 10.0 mg/kg/injection, schedule: Q01DX009 (ip), vehicle: saline + alcohol
  T/C: 127 % of control
dose: 15.0 mg/kg/injection, schedule: Q01DX009 (ip), vehicle: water
  T/C: 133 and 138 % of control
dose: 20.0 mg/kg/injection, schedule: Q01DX009 (ip), vehicle: saline
  T/C: 145 % of control
dose: 20.0 mg/kg/injection, schedule: Q01DX010 (ip), vehicle: carboxymethylcellulose (CMC)
  T/C: 140 % of control
dose: 30.0 mg/kg/injection, schedule: Q01DX009 (ip), vehicle: water
  T/C: 142 and 147 % of control
dose: 40.0 mg/kg/injection, schedule: Q01DX009 (ip), vehicle: saline + alcohol
  T/C: 127 % of control
dose: 40.0 mg/kg/injection, schedule: Q01DX010 (ip), vehicle: carboxymethylcellulose (CMC)
  T/C: 140 % of control
dose: 60.0 mg/kg/injection, schedule: Q01DX010 (ip), vehicle: carboxymethylcellulose (CMC), evaluated on day 29
  T/C: 136 % of control
dose: 60.0 mg/kg/injection, schedule: Q01DX010 (ip), vehicle: carboxymethylcellulose (CMC), evaluated on day 30
  T/C: 125 % of control
dose: 60.0 mg/kg/injection, schedule: Q01DX010 (ip), vehicle: carboxymethylcellulose (CMC), evaluated on day 32
  T/C: 128 % of control
dose: 90.0 mg/kg/injection, schedule: Q01DX010 (ip), vehicle: carboxymethylcellulose (CMC)
  survivor count: 3 of 6

## COc1ccc(Br)cc1/C=C/[N+](=O)[O-]
[1]
  survivor count: 0 of 6
[2]
  survivor count: 2 of 6

## O=Nc1ccc2ccccc2c1O
dose: 200.0 mg/kg/injection, schedule: Q01DX001 (ip), vehicle: Klucel (hydroxypropylcellulose) (HPC)
  survivor count: 0 of 6

## CC(=O)NC(CO)(CO)CO
dose: 400.0 mg/kg/injection, schedule: Q01DX001 (ip), vehicle: saline
  survivor count: 6 of 6

## NC(=S)N/N=C\c1nccc2ccc(N)cc12
dose: 12.5 mg/kg/injection, schedule: Q01DX009 (ip), vehicle: saline with Tween-80
  T/C: 144 % of control
dose: 25.0 mg/kg/injection, schedule: Q01DX009 (ip), vehicle: saline with Tween-80
  T/C: 139 % of control

## C[N+]1(C)CCCCC1
dose: 25.0 mg/kg/injection, schedule: Q04DX003 (ip), vehicle: saline with Tween-80
  survivor count: 6 of 6
dose: 50.0 mg/kg/injection, schedule: Q04DX003 (ip), vehicle: saline with Tween-80
  survivor count: 0 of 6
dose: 100.0 mg/kg/injection, schedule: Q04DX003 (ip), vehicle: saline
  survivor count: 0 of 6
dose: 200.0 mg/kg/injection, schedule: Q04DX003 (ip), vehicle: saline
  survivor count: 0 of 6

## CC(C)(C)C1Sc2nc3ccccc3n2C1=O (stereo not drawn)
[3]
  survivor count: 3 of 6

## Clc1cc(Cl)nc(N2CC2)n1
dose: 100.0 mg/kg/injection, schedule: Q04DX003 (ip), vehicle: saline with Tween-80
  survivor count: 0 of 6
dose: 200.0 mg/kg/injection, schedule: Q04DX003 (ip), vehicle: saline with Tween-80
  survivor count: 0 of 6
dose: 400.0 mg/kg/injection, schedule: Q04DX003 (ip), vehicle: saline with Tween-80
  survivor count: 0 of 6

## CC(=O)[C@]1(O)Cc2c(O)c3c(c(O)c2[C@@H](OC2CC(N)C(O)C(C)O2)C1)C(=O)c1c(O)cccc1C3=O (stereo partly drawn)
dose: 0.65 mg/kg/injection, schedule: Q04DX003 (ip), vehicle: water
  T/C: 135 % of control
dose: 1.5 mg/kg/injection, schedule: Q04DX003 (ip), vehicle: water
  survivor count: 8 of 8
dose: 1.8 mg/kg/injection, schedule: Q04DX003 (ip), vehicle: water
  survivor count: 8 of 8

## CS(=O)(=O)N(CC(=O)NC(Cc1ccccc1)C(=O)O)Cc1ccccc1 (stereo not drawn) (Ms-[Nphe]-[ξF]-OH)
dose: 200.0 mg/kg/injection, schedule: Q01DX009 (ip), vehicle: other
  survivor count: 0 of 6
dose: 400.0 mg/kg/injection, schedule: Q01DX009 (ip), vehicle: other
  survivor count: 0 of 6

## [N-]=[N+]=CC(=O)NCC(=O)NO
dose: 600.0 mg/kg/injection, schedule: Q01DX009 (ip), vehicle: water
  survivor count: 6 of 6

## COc1cccc2c1C(=O)c1c(O)c3c(c(O)c1C2=O)C[C@@](O)(C(=O)CO)C[C@@H]3OC1CC(N(C)C)C(O)C(C)O1 (stereo partly drawn)
dose: 6.67 mg/kg/injection, schedule: Q04DX003 (ip), vehicle: water
  survivor count: 8 of 8

## c1ccc(-c2nnn(-c3ccccc3)n2)cc1
[1]
  survivor count: 5 of 6

## O=[N+]([O-])c1cccc(C=Nc2cccc(C(F)(F)F)c2)c1
dose: 12.5 mg/kg/injection, schedule: Q01DX009 (ip), vehicle: Klucel (hydroxypropylcellulose) (HPC)
  survivor count: 6 of 6
[4]
  survivor count: 6 of 6
[3]
  survivor count: 6 of 6

## Cc1nc2ccccc2nc1CI
dose: 4.5 mg/kg/injection, schedule: Q01DX009 (ip), vehicle: alcohol
  T/C: 133 % of control
dose: 6.75 mg/kg/injection, schedule: Q01DX009 (ip), vehicle: saline
  T/C: 130 % of control
dose: 9.0 mg/kg/injection, schedule: Q01DX009 (ip), vehicle: alcohol
  T/C: 127 % of control
dose: 18.0 mg/kg/injection, schedule: Q01DX009 (ip), vehicle: alcohol
  T/C: 127 % of control
dose: 26.0 mg/kg/injection, schedule: Q01DX009 (ip), vehicle: saline
  T/C: 125 and 140 % of control
dose: 40.0 mg/kg/injection, schedule: Q01DX009 (ip), vehicle: saline
  survivor count: 5 of 6
dose: 60.0 mg/kg/injection, schedule: Q01DX001 (ip), vehicle: Klucel (hydroxypropylcellulose) (HPC)
  survivor count: 1 of 6
dose: 60.0 mg/kg/injection, schedule: Q01DX009 (ip), vehicle: saline
  survivor count: 5 of 6
dose: 60.0 mg/kg/injection, schedule: Q04DX003 (ip), vehicle: saline
  survivor count: 3 of 6
dose: 90.0 mg/kg/injection, schedule: Q04DX003 (ip), vehicle: saline
  survivor count: 2 of 6
dose: 120.0 mg/kg/injection, schedule: Q01DX001 (ip), vehicle: Klucel (hydroxypropylcellulose) (HPC)
  survivor count: 0 of 6
dose: 135.0 mg/kg/injection, schedule: Q04DX003 (ip), vehicle: saline
  survivor count: 0 of 6

## CCOC(=O)CC(C)=O.[Cu+2]
[4]
  survivor count: 4 of 6

## O=c1nc(Oc2ccccc2)nc2cnccn12
[2]
  survivor count: 2 of 6

## CC1(C)SC2C(NC(=O)Cc3ccccc3)C(=O)N2C1C(=O)O (stereo not drawn)
[5]
  survivor count: 3 of 3

## C[CH2][Pb]([CH2]C)([CH2]C)[O][As](=O)(O)c1ccc(N)cc1
dose: 1.3 mg/kg/injection, schedule: Q01DX009 (ip), vehicle: saline
  survivor count: 6 of 6
dose: 3.0 mg/kg/injection, schedule: Q01DX009 (ip), vehicle: saline
  T/C: 140 % of control [5 of 6 alive]
dose: 6.0 mg/kg/injection, schedule: Q01DX009 (ip), vehicle: saline
  survivor count: 4 of 6

## CCOC(=O)Cc1csc(NN=C(C)C)n1
[5]
  survivor count: 0 of 6

## COc1cc2cc(c1Cl)N(C)C(=O)/C=C/C1(C)OC1C(C)C1CC(O)(NC(=O)O1)C(OC)C=C/C=C(\C)C2 (stereo not drawn)
dose: 6.3 micrograms/kg/injection, schedule: Q01DX009 (ip), vehicle: saline + alcohol
  survivor count: 6 of 6
dose: 12.5 micrograms/kg/injection, schedule: Q01DX009 (ip), vehicle: saline + alcohol
  survivor count: 6 of 6
dose: 25.0 micrograms/kg/injection, schedule: Q01DX009 (ip), vehicle: saline + alcohol
  survivor count: 6 of 6
dose: 50.0 micrograms/kg/injection, schedule: Q01DX009 (ip), vehicle: saline + alcohol
  survivor count: 6 of 6
